Assay results taken from PubChem BioAssay AID504834 (National Center for Advancing Translational Sciences (NCATS), 2011).
The campaign covered roughly 320,000 compounds. About 22,000 (6.9%) were called active. The shares of active, inactive and inconclusive entries below differ from those in the screen. Calls come from the whole dose curve; as a rule, active = well fitted inhibition curve with a large enough effect; inconclusive = small, poorly fitted or top-dose-only effect, or another doubt; inactive = no such curve, though single readings can be large or run the other way. Potencies of inconclusive entries are doubtful fits and often do not repeat.
% is set by controls: 0 for no effect and ±100 for the full control effect; potency is the fitted concentration of half-maximal effect.

Test: Primary qHTS for delayed death inhibitors of the malarial parasite plastid, 96 hour incubation
Conditions: P. falciparum luciferase reporter growth; series mostly up to 28.7 µM; activity change, negative = inhibition: at the top concentration
Summary of the method: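 Infected RBCs, 2% Hct / 0.05% parasitemia final; luciferase-reporter P. falciparum; cpd 96 h, 37 C, 5% CO2; luciferase detection reagent; luminescence.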
With `CC(=O)N1CCc2cc(S(=O)(=O)NCCC(=O)NCCc3ccc(Cl)cc3)ccc21` the “activity change, negative = inhibition” value was inactive: 3.36%.
In the case of `COc1ccc(-c2cc(C#N)nc(N3CCN(C)CC3)n2)cc1`, the Potency is reported as inconclusive: 18.5 µM [inhibitor, single point].
For `Cc1ccc(C(=O)NCCCC(=O)O)o1`, the Potency was inconclusive: 18.5 µM [inhibitor, single point].
In the case of `Cc1nn(C(=O)CCCC(=O)NCc2ccccc2)c2ccccc12`, the Potency is reported as inconclusive: 11.7 µM [inhibitor, single point].
With `COc1ccc(N2C(=O)CC(Sc3n[nH]c(-c4ccccc4)n3)C2=O)cc1` (configuration not stated) the Potency was inconclusive: 23.3 µM [inhibitor, single point].
In the case of `COc1ccc(C2N(C(=O)N3CCOCC3)CCN2S(=O)(=O)c2ccc(C)cc2)cc1` (configuration not stated), the Potency is reported as inconclusive: 10.4 µM [inhibitor, partial curve].
For `N#CCc1ccc(NC(=O)c2ccc(S(=O)(=O)N3CCOCC3)cc2)cc1`, the “activity change, negative = inhibition” value was inactive: 0%.
In the case of `COc1ccc(Br)cc1S(=O)(=O)N1CCCC1`, the Potency is reported as inconclusive: 11.7 µM [inhibitor, single point].
With `CCCCNC(=O)CC1N=C2c3ccccc3N=C(SCC(=O)Nc3cccc(OC)c3)N2C1=O` (configuration not stated) the Potency was inconclusive: 9.28 µM [inhibitor, partial curve].
For `Cc1cc(NC(=O)CSc2nnc(COc3ccccc3)n2Cc2ccco2)no1`, the Potency was active: 8.28 µM.
In the case of `Cc1c(C=O)c2ccccc2n1CCOc1ccccc1F`, the Potency is reported as active: 8.28 µM.
With `CCOC(=O)c1ccc(NS(C)(=O)=O)cc1` the Potency was inconclusive: 2.94 µM [inhibitor, partial curve, poor fit].
For `Cc1ccc(S(=O)(=O)N2C(=O)c3cccc4cccc2c34)cc1`, the “activity change, negative = inhibition” value was inactive: 9.73%.
For `CCOc1ccc(NCc2cccn2-c2nnc(N3CCC(C(=O)NCCCN4CCCCC4)CC3)s2)cc1`, the Potency was inconclusive: 18.5 µM [inhibitor, single point].
With `O=C1N=c2ccccc2=C1c1sc(=S)n(Cc2ccccc2Cl)c1O` the “activity change, negative = inhibition” value was inactive: 31.7%.
For `CCc1cc(C(=O)N2CCCC(CCC(=O)NCc3cccc(OC)c3)C2)no1` (configuration not stated), the “activity change, negative = inhibition” value was inactive: 43.4%.
For `COc1cccc(NC(=O)CSc2nc3ccccc3n2C)c1`, the Potency was inconclusive: 1.65 µM [inhibitor, full curve].
With `COc1ccc(NC(=O)Cn2c(CCC(=O)O)ccc2-c2ccc(C)cc2)cc1` the Potency was inconclusive: 10.4 µM [inhibitor, single point].
For `Brc1ccc(-c2csc(-c3ccncc3)n2)cc1`, the “activity change, negative = inhibition” value was inactive: -87.8%.
In the case of `CCCS(=O)(=O)Nc1ccc(-c2ccc3nnc(C)n3n2)cc1`, the “activity change, negative = inhibition” value is reported as inactive: 41.6%.
In the case of `Nc1nc(N)nc(-c2ccccc2-c2nc(N)nc(N)n2)n1`, the “activity change, negative = inhibition” value is reported as inactive: -0.335%.
With `Cc1nnc(SCC2=C(C(=O)O)N3C(=O)C(NC(=O)Cn4nc(C(F)F)cc4C)C3SC2)s1` (configuration not stated) the Potency was inconclusive: 11.7 µM [inhibitor, single point].
With `O=C(CSc1nnc(-c2cc3ccccc3cc2O)n1Cc1ccco1)c1ccc(F)cc1` the Potency was inconclusive: 0.415 µM [inhibitor, partial curve, poor fit].
With `CS(=O)(=O)NCCOc1ccc(S(=O)(=O)NCCOc2ccccc2)cc1` the “activity change, negative = inhibition” value was inactive: 31.5%.
For `COc1ccc(OC)c(NS(=O)(=O)c2ccc(Cl)nc2)c1`, the “activity change, negative = inhibition” value was inactive: -11.9%.
With `Cc1ncoc1C(=O)Nc1ccccc1C(N)=O` the Potency was inconclusive: 10.4 µM [inhibitor, partial curve, poor fit].
In the case of `COc1cc2cnc(-c3ccccc3)c(-c3ccc(C#N)cc3)c2cc1OC`, the Potency is reported as inconclusive: 11.7 µM [inhibitor, partial curve].
For `Cc1cccc(NC(=O)CSCc2cc(=O)n3ccsc3n2)c1C`, the “activity change, negative = inhibition” value was inactive: -2.48%.
For `Cc1ccc(Cn2nnc3c(=O)[nH]c(C4CCN(S(=O)(=O)c5ccc(S(=O)(=O)NC6CC6)cc5)CC4)nc32)cc1`, the Potency was active: 1.47 µM.
For `NC1=NC[C@H](Cc2ccccc2)N1CCc1cc(C(F)(F)F)cc(C(F)(F)F)c1`, the Potency was inconclusive: 3.29 µM [inhibitor, full curve].
In the case of `CC(=O)NS(=O)(=O)c1ccc(NC(=S)NC(=O)C2CCC2)cc1`, the “activity change, negative = inhibition” value is reported as inactive: 0%.
With `Cn1nc(C(F)(F)F)c(C(=O)Nc2ccc(F)cc2F)c1Sc1ccc(Cl)cc1` the Potency was active: 11.7 µM.
With `CCn1ccnc1CN(C)Cc1nc(CCC(C)C)no1` the Potency was inconclusive: 18.5 µM [inhibitor, single point].
With `CCCC(=NCc1ccccc1)C1=C(O)C(C(=O)OC)C(C)(C)CC1=O` (configuration not stated) the Potency was inconclusive: 10.4 µM [inhibitor, single point].
With `CC(C)Cc1oc(C(=O)O)cc1CN1CCOCC1` the Potency was inconclusive: 11.7 µM [inhibitor, single point].
In the case of `Cc1onc(-c2ccccc2Cl)c1C(=O)OCN1C(=O)c2ccccc2C1=O`, the Potency is reported as active: 13.1 µM.
With `O=C(CSc1nc2ccc(S(=O)(=O)N3CCOCC3)cc2[nH]1)N1CCOCC1` the Potency was active: 1.85 µM.
For `CCN(CC)c1ccc2cc(NC(=O)CCC(=O)O)c(=O)oc2c1`, the Potency was inconclusive: 0.522 µM [inhibitor, full curve].
For `CC1CCCN(C(=O)C2c3ccccc3C(=O)N3CCc4ccccc4C23)C1` (configuration not stated), the Potency was inconclusive: 18.5 µM [inhibitor, single point].
With `CC1(C)CC(C(CCN(Cc2ccccc2)C(=O)c2ccco2)c2ccc(F)cc2)CCO1` (configuration not stated) the Potency was active: 1.47 µM.
For `Cc1noc(C)c1COc1ccc2ccc(=O)oc2c1`, the Potency was inconclusive: 18.5 µM [inhibitor, single point].
In the case of `Cc1nnc(NC(=O)Cc2ccc(OCc3c(C)noc3C)cc2)s1`, the Potency is reported as inconclusive: 6.57 µM [inhibitor, partial curve, poor fit].
For `O=c1c2ccccc2c(C=NCCCN2CCOCC2)c(O)n1Cc1ccc2c(c1)OCO2`, the Potency was inconclusive: 5.86 µM [inhibitor, partial curve].
With `COc1ccc(NC(=O)C2C3CCC(O3)C2C(=O)O)c(C)c1` (configuration not stated) the Potency was inconclusive: 18.5 µM [inhibitor, single point].
For `O=C(CSc1nc2ccccc2[nH]1)c1c[nH]c2ccccc12`, the “activity change, negative = inhibition” value was inactive: -2.06%.
In the case of `Cc1ccc(S(=O)(=O)c2nc(S(C)(=O)=O)sc2N2CCC(C(N)=O)CC2)cc1`, the Potency is reported as active: 8.28 µM.
With `CN(CC(=O)O)S(=O)(=O)c1cccs1` the “activity change, negative = inhibition” value was inactive: 9.17%.
